According to patent publication EP4722228A1, “NEW COMPOUND TARGETING MUSK AND USE THEREOF” (The University of Tokyo, priority 2023, dated 2024):
For at least one compound, name, drawing or mass did not settle the structure. Numbered stars: 1 amine (or outer) side, 2 acyl side, 3 side chain; on linkers, the order of the positions; unused ones are H or OH. Bridge positions count the residues as written; N and C are the ends. Square brackets hold non-standard residues; d marks the D form. Peptide text beside a SMILES is read from it. I, II: the chains in the order shown. X2 = O=C(CCN1C(=O)CC([*:1])C1=O)NCCCOCCOCCOCCCNC(=O)CCN1C(=O)CC([*:2])C1=O

Biological target: T1, human MuSK (Homo sapiens, UniProt O15146)
T1 construct: DNA corresponding to the extracellular portion (amino acids 1-493) was amplified by a PCR method; made in house; host or cells: Expi293F cells
T1 sequence (O15146 24-493): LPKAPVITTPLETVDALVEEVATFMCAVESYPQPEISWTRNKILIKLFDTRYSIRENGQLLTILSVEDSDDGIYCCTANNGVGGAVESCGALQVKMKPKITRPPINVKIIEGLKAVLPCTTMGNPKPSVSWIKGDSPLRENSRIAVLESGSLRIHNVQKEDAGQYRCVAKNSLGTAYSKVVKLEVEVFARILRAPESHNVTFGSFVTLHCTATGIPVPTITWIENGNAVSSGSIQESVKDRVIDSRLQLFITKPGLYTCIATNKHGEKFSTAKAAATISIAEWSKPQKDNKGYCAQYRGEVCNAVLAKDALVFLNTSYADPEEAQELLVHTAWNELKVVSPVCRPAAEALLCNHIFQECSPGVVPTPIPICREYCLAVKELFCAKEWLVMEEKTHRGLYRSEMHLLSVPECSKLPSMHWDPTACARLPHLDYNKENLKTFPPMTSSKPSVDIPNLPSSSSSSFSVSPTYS
Test: SPR binding activity test to human MuSK (Biacore)
Settings: peptide homodimers
Procedure: The human MuSK protein (extracellular portion) was prepared as a recombinant protein as follows. Using a Flexi clone (FXC31275, Promega Corporation) encoding Human MuSK isoform 1 precursor (NCBI Reference Sequence: NP_005583.1) as a template, DNA corresponding to the extracellular portion (amino acids 1-493) was amplified by a PCR method. XhoI and EcoRI restriction enzyme recognition sequences were added to both the 5' and 3' ends of the amplified DNA sequence, and these were used for insertion into the multiple cloning site of a pCAG-Neo hIgG1-Fc plasmid (Fujifilm Wako Pure Chemical Corporation). […]
The strength of binding between MuSK and the cyclic peptides was evaluated by quantitatively measuring the binding kinetics (binding affinity (dissociation constant) KD) of the cyclic peptides to MuSK immobilized on a sensor chip via an Fc tag, using surface plasmon resonance (SPR).
According to the standard immobilization protocol provided by the manufacturer, Fc-tagged human/mouse/rat MuSK was immobilized on a Protein G chip or a Protein A chip (Cytiva). […] A 1:1 binding fitting analysis was applied using Biacore evaluation software, and ka, kd, and KD values were determined. […]
The affinity of the U-bodies and their complexes obtained as described above for MuSK of human, rat, and mouse was evaluated (binding activity test). […]

SMILES: CC[C@H](C)[C@@H]1NC(=O)[C@H](CC(N)=O)NC(=O)[C@H](C(C)C)NC(=O)[C@H](Cc2ccc(O)cc2)NC(=O)CNC(=O)[C@@H]2CCCN2C(=O)[C@H](CCC(N)=O)NC(=O)[C@H](CC(C)C)NC(=O)[C@H](Cc2ccc(O)cc2)NC(=O)[C@H](Cc2c[nH]c3ccccc23)NC(=O)[C@@H](Cc2ccc(O)cc2)NC(=O)CSC[C@@H](C(=O)N[C@@H](CSC2CC(=O)N(CCC(=O)NCCCOCCOCCOCCCNC(=O)CCN3C(=O)CC(SC[C@H](NC(=O)[C@@H]4CSCC(=O)N[C@H](Cc5ccc(O)cc5)C(=O)N[C@@H](Cc5c[nH]c6ccccc56)C(=O)N[C@@H](Cc5ccc(O)cc5)C(=O)N[C@@H](CC(C)C)C(=O)N[C@@H](CCC(N)=O)C(=O)N5CCC[C@H]5C(=O)NCC(=O)N[C@@H](Cc5ccc(O)cc5)C(=O)N[C@@H](C(C)C)C(=O)N[C@@H](CC(N)=O)C(=O)N[C@@H]([C@@H](C)CC)C(=O)N[C@@H](C(C)C)C(=O)N[C@@H]([C@@H](C)O)C(=O)N[C@@H](CO)C(=O)N[C@@H](Cc5ccc(O)cc5)C(=O)N[C@@H](Cc5c[nH]cn5)C(=O)N4)C(N)=O)C3=O)C2=O)C(N)=O)NC(=O)[C@H](Cc2c[nH]cn2)NC(=O)[C@H](Cc2ccc(O)cc2)NC(=O)[C@H](CO)NC(=O)[C@H]([C@@H](C)O)NC(=O)[C@H](C(C)C)NC1=O (stereo partly shown) [MuSK9 PEG3 dimer] (I: {CH2CO}-[dY]WYLQPGYVNIVTSYHCC-NH2 / II: {CH2CO}-[dY]WYLQPGYVNIVTSYHCC-NH2; linker I:18-II:18 via X2; thioether I:N-I:17, II:N-II:17)
- Kd: 2.1 nM
